Data published in PMC7712234.
Results are given in words; binding and its absence hold for the method and conditions named. Binding seen in cells or lysates may run through a third protein. These calls come from enrichment with a bait or labelling near it, and not all partners need be listed.

Protein sequences, listed by entry. Tags and fused reporters are not part of them. Lines headed by an entry give the natural chain unless they say otherwise; changes in a name come on top.
UniProt C1H8F5: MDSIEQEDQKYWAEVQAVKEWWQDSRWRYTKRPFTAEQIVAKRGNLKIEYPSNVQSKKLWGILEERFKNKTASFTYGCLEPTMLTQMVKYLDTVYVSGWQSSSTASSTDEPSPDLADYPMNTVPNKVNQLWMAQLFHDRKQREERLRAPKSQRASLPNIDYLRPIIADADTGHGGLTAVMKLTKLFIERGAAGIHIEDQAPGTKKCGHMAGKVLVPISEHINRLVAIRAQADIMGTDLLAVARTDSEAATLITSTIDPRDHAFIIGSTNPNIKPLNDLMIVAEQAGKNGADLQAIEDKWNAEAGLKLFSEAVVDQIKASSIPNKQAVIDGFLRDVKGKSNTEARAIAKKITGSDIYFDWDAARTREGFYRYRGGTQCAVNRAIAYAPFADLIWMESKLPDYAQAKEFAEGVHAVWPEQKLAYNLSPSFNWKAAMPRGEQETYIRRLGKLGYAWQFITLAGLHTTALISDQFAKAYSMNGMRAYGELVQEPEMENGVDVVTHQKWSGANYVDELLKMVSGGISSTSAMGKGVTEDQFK
UniProt C1H483: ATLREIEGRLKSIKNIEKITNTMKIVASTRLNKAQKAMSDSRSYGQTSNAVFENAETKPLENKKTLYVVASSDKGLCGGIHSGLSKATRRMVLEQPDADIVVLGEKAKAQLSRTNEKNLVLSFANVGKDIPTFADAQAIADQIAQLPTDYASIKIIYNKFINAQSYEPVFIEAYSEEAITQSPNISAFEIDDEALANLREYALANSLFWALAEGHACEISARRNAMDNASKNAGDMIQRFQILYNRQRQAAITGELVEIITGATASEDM
UniProt C1H6Y5: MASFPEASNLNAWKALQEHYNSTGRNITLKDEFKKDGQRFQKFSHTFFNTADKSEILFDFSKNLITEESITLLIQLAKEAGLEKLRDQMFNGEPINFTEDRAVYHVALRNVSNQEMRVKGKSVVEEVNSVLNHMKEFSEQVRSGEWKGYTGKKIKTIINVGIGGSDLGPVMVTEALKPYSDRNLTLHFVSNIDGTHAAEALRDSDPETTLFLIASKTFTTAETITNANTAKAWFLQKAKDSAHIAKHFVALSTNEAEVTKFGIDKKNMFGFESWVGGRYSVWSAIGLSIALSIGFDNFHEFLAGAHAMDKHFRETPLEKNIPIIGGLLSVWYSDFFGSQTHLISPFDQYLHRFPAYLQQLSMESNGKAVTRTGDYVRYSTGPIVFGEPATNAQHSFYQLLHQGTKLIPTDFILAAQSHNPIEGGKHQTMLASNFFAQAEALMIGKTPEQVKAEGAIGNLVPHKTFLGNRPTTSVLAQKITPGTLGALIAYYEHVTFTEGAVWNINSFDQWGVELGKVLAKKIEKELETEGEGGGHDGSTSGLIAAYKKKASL

Legend:
[1] = target: Paracoccidioides lutzii recombinant isocitrate lyase (Paracoccidioides lutzii) (UniProt C1H8F5); assay: affinity purification with mass spectrometry; recombinant ICL immobilised on Ni-NTA resin, incubated 2 h with the soluble protein extract of P. lutzii yeast cells; washed, eluted, tryptic digestion, nanoUPLC-HDMS^E; proteins also found with resin alone excluded; only the target purified
[2] = target: Paracoccidioides lutzii recombinant isocitrate lyase (Paracoccidioides lutzii) (UniProt C1H8F5); assay: affinity purification with mass spectrometry; recombinant ICL immobilised on Ni-NTA resin, incubated 2 h with the soluble protein extract of P. lutzii mycelium; washed, eluted, tryptic digestion, nanoUPLC-HDMS^E; proteins also found with resin alone excluded; only the target purified
[3] = target: Paracoccidioides lutzii recombinant isocitrate lyase (Paracoccidioides lutzii) (UniProt C1H8F5); assay: affinity purification with mass spectrometry; recombinant ICL immobilised on Ni-NTA resin, incubated 2 h with the soluble protein extract of P. lutzii mycelium-to-yeast transition cells; washed, eluted, tryptic digestion, nanoUPLC-HDMS^E; proteins also found with resin alone excluded; only the target purified

With “ATP synthase gamma chain (from UniProt C1H483)” the binding [1] was “binds”.

“glucose-6-phosphate isomerase (from UniProt C1H6Y5)” was tested, and the binding [1] was “binds”.

B1: fructose-bisphosphate aldolase (protein, UniProt Q96UH7 1-360)
chain: MGVKDILSRKTGVIVGDDVLRLFQHAQEKVFAIPAINVTSSSTVVAALEAARDKNSPIILQVSQGGAAFFAGKGVPNGKQEASVAGAIAAAHYIRSIAPSYGIPVVLHTDHCAKKLLPWLDGMLDADECYFKLHNEPLFSSHMIDLSEESVEWNIETTAKYLKRAAPMKQWLEMEIGITGGEEDGVNNESVDNNSLYTQPEDIYTIYKTLSAISPYFSIAAGFGNVHGVYKPGNVRLHPELLSKHQAYVKEKTGSSKNKPVYLVFHGGSGSTKAEFKEAISYGVVKVNLDTDLQYAYLSGVRDFVLKKKDYLMSAVGNPEGEDKPNKKYFDPRVWIREGEKTMSARVQEAFDDFNTSNQL
With B1 the binding [2] was “binds”, the binding [1] was “binds” and the binding [3] was “binds”.

B2: triosephosphate isomerase (protein, UniProt Q96VN5 1-249)
chain: MPRKFFVGGNFKMNGTAKSITHIITNLNSAKLDPSTEIVIAPPAIYLVLARQLANGQVAVSAQNVFDKPNGAFTGELSVEQLRDEKITWTLAGHSERRVLLREDDEFVARKTKAAINGGLNVILCIGESLEEREAGKTIDVVTRQLDAVAEEVSPAEWNKVVIAYEPIWAIGTGKVATTEQAQEVHASIRKWLNEKISPEAAENIRVIYGGSVTENNCRDLAAQPDVDGFLVGGASLKPAFVDIINARL
For B2, the binding [2] was “binds”, the binding [1] was “binds” and the binding [3] was “binds”.

B3: isocitrate dehydrogenase subunit 1 (protein, UniProt C1GQR1 1-388)
chain: MFSLRTAQSAQSLFCTIAKNSSTCLSRSSIATRTFATVQSDIFKPTKYGGKYTVTLIPGDGIGAEVAESVKTIFKADNVPIEWEQVDVSGVDVGNKRSEDLFKESIASLRRNKLGLKGILHTPVEISGHQSFNVALRQELDIYASIILIKNIPGYKTRHDNVDLCIIRENTEGEYSGLEHESVSGVVESLKIITRAKSERIAKFAFSFALANNRKKVTCIHKANIMKLADGLFRSTFHKVAESFPTLEANDMIVDNASMQAVSRPQQFDVMVMPNLYGGILSNVGAALVGGPGIVPGCNMGREVAVFEPGCRHVGLDIKGKDQANPTALILSGSMLLRHLGLDEHANRISKAVYDVIGEGVVRTRDMGGQATTNEFTRAVLDKMEAAL
In the case of B3, the binding [1] is reported as “binds”.
